Screening data, single-dose tests

Sequences of proteins named here, by UniProt entry; tags and fusion partners are left off.
UniProt P9WFT3, whole entry: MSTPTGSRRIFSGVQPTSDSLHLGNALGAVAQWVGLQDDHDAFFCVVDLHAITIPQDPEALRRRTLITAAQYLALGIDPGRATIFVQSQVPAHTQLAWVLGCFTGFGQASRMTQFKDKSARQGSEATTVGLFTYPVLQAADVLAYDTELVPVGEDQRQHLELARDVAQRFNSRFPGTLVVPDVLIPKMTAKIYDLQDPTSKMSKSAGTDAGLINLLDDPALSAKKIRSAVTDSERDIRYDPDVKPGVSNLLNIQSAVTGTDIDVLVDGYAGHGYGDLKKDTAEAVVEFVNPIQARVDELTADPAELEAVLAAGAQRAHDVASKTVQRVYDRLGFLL

MtTrpRS: 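Enzyme assay of tryptophanyl-tRNA synthetase; the read-out is not stated. Target: Tryptophan-tRNA ligase, Mycobacterium tuberculosis (UniProt P9WFT3). Compounds at 10 µM. Direction is not recorded; retested compounds ran higher, which suggests that high means inhibition. Size under these conditions: about 65,000 compounds, about 64 of them at 50% or above in at least one test.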
Leishmania in macrophages: 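Cell assay of Leishmania donovani living inside macrophages; the read-out is not stated. Compounds at 30 µM. Higher reads as stronger inhibition (inferred: compounds with an IC50 in retests scored well above the rest). Size under these conditions: about 69,000 compounds, about 1,000 of them at 50% or above in at least one test.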

Values are the deposited “Percent Effect”, in %. The controls that fix the scale are not given in the record; negative values are as filed. This is an unselected part of the compounds tested. Two or more numbers in one place are separate tests of the same structure; such repeats can differ widely.

{"structure": "COc1ccc(CN2CCCCCC2c2cccs2)c(O)c1", "stereo": "configuration not stated", "MtTrpRS": 0.8804, "Leishmania in macrophages": 6.411}
{"structure": "COc1cc(CNc2nc(C(F)(F)F)no2)cc(OC)c1OC", "MtTrpRS": -3.82, "Leishmania in macrophages": -28.07}
{"structure": "CN(C)c1cc(C(=O)N2CCCCC2CNS(C)(=O)=O)ccn1", "stereo": "configuration not stated", "MtTrpRS": -6.144, "Leishmania in macrophages": 27.67}
{"structure": "O=C(O)C(F)(F)F.O=C(O)C(F)(F)F.[H][C@@]12CCN(c3ccccc3)C[C@]1([H])[C@H](C(=O)Nc1cccnc1C)CCO2", "Leishmania in macrophages": -16.57}
{"structure": "O=C1CC(c2cccs2)c2sc(C(=O)O)c(-c3ccccc3)c2N1", "stereo": "configuration not stated", "MtTrpRS": -1.483, "Leishmania in macrophages": -17.8}
{"structure": "CN(CCOCC1CC1)C(=O)Nc1ccc([S+](C)[O-])c(F)c1", "stereo": "configuration not stated", "MtTrpRS": 4.258, "Leishmania in macrophages": -31.42}
{"structure": "Cc1cc(CNC(=O)c2cnoc2C)c(C)o1", "MtTrpRS": 4.617, "Leishmania in macrophages": -49.3}
{"structure": "Cn1cc(NS(=O)(=O)c2ccc(C(F)(F)F)cc2)ccc1=O", "MtTrpRS": -6.907, "Leishmania in macrophages": -2.5}
{"structure": "O=C(NCCN1CCOCC1)Nc1cnc2cc(Cl)ccc2c1O", "Leishmania in macrophages": 9.159}
{"structure": "O=C(NC(CN1CCCC1)c1ccccc1)c1c(O)cc(F)cc1F", "stereo": "configuration not stated", "MtTrpRS": 2.457, "Leishmania in macrophages": 5.752}
{"structure": "O=C(NCCN1CCCCC1)C(c1ccccc1)N1CCCC1", "stereo": "configuration not stated", "Leishmania in macrophages": -9.102}
{"structure": "CS(=O)(=O)N1Cc2nccn2CC(CN2CCCC2=O)C1", "stereo": "configuration not stated", "MtTrpRS": -0.239, "Leishmania in macrophages": "8.53 & 30.23"}
{"structure": "Cc1ccc(CN2CCc3c(COC(C)C)nn(C)c3C2)s1.O=C(O)C(F)(F)F", "Leishmania in macrophages": 54.88}
{"structure": "COc1ccc(C(C)NCc2c[nH]nc2C)cc1OC.Cl", "stereo": "configuration not stated", "Leishmania in macrophages": 34.73}
{"structure": "Cn1nccc1CNC(=O)NC1CCN(c2ncccc2Cl)C1", "stereo": "configuration not stated", "MtTrpRS": 0.1282, "Leishmania in macrophages": 37.71}
{"structure": "O=C(O)C(F)(F)F.O=C(O)C(F)(F)F.[H][C@@]12C[C@@H](OCc3ccccn3)CN1CCN(C(=O)c1ccc(F)cc1)C2", "Leishmania in macrophages": 18.99}
{"structure": "CC(C)c1nn(C)c(Cl)c1CNCc1ccc(N(C)C)nc1", "MtTrpRS": -1.569}
{"structure": "[H][C@@]12CN(S(C)(=O)=O)C[C@]1(C(=O)NC)CCC21CCN(C(C)=O)CC1", "Leishmania in macrophages": 39.29}
{"structure": "CCCS(=O)(=O)N1CCC2(CC1)CC(=O)N(CCCc1ccccc1)C2", "MtTrpRS": 3.665, "Leishmania in macrophages": -14.86}
{"structure": "O=C(c1ccn(-c2ccc(F)cc2)n1)N(CCO)Cc1cccnc1", "MtTrpRS": 6.48, "Leishmania in macrophages": 31.08}
{"structure": "COC(=O)c1ccc(NC(C)c2ccc3c(c2)CCC(=O)N3)nn1", "stereo": "configuration not stated", "MtTrpRS": 2.323, "Leishmania in macrophages": 8.522}
{"structure": "CCN(CC)CCC(=O)N1CCc2c(nc(N(C)C)nc2N(C)C)C1", "MtTrpRS": 3.336, "Leishmania in macrophages": -0.4952}
{"structure": "CCCN(Cc1ccccc1)Cn1nc(C)c2c(C)onc2c1=O", "MtTrpRS": 1.33, "Leishmania in macrophages": 9.527}
{"structure": "O=C(NCC1CC1)C1=NOC2(CCN(Cc3ccsc3)C2)C1", "stereo": "configuration not stated", "MtTrpRS": -3.28, "Leishmania in macrophages": 3.099}
{"structure": "CCN(CC1COc2ccccc2O1)C(=O)C1=NN(C)C(=O)CC1", "stereo": "configuration not stated", "MtTrpRS": 3.311, "Leishmania in macrophages": 21.5}
{"structure": "Cc1ccc(C(=O)N2CCn3cc(CN4CCCCC4)nc3C2)o1.O=C(O)C(F)(F)F", "Leishmania in macrophages": -15.98}
{"structure": "CCN(CCn1cccn1)Cc1nc(-c2cc(F)ccc2F)oc1C", "MtTrpRS": 1.57, "Leishmania in macrophages": 16.18}
{"structure": "NC(=O)CN1C(=O)CO[C@H]2CN(Cc3ccc(C(F)(F)F)cc3)C[C@H]21", "MtTrpRS": 2.212}
{"structure": "Cn1nc(COCC2CC2)c2c1CCN(Cc1cccs1)C2.O=C(O)C(F)(F)F", "Leishmania in macrophages": 9.258}
{"structure": "CCn1nc(C)cc1C(=O)NCc1nc(C)cc(C)n1", "MtTrpRS": -5.332, "Leishmania in macrophages": 22.31}
{"structure": "Cc1nccn1C1CCCN(C(=O)c2cccc(Cn3ccnc3)c2)C1", "stereo": "configuration not stated", "MtTrpRS": -10.59, "Leishmania in macrophages": 43.46}
{"structure": "CN(Cc1nc2ccccc2n1C)CC1CCCN1c1cccnn1", "stereo": "configuration not stated", "MtTrpRS": -1.546, "Leishmania in macrophages": 24.3}
{"structure": "COc1cc(Cl)ccc1C(=O)N1CCCC(n2nc(C)nc2C)C1", "stereo": "configuration not stated", "MtTrpRS": -5.96, "Leishmania in macrophages": -21.08}
{"structure": "COCCN1C[C@H]2CC[C@@H]1CN(C(=O)CCc1n[nH]c(C)c1C)C2", "MtTrpRS": 2.545}
{"structure": "Cc1ccsc1C(CNC(=O)c1cc(=O)c2ccccc2[nH]1)N(C)C", "stereo": "configuration not stated", "MtTrpRS": 6.344, "Leishmania in macrophages": 18.43}
{"structure": "CN(C)CCOC1CC2(CCN(c3cnccn3)CC2)c2ccccc21.O=C(O)C(F)(F)F", "stereo": "configuration not stated", "Leishmania in macrophages": 2.167}
{"structure": "O=C(NC(Cc1ccsc1)c1nccs1)C1CCOCC1", "stereo": "configuration not stated", "MtTrpRS": 2.592, "Leishmania in macrophages": 13.28}
{"structure": "COCCCNc1c(C#N)c2c(c3nncn13)CN(C)CC2.Cl", "Leishmania in macrophages": "11.75 & -0.7349"}
{"structure": "CCOc1cc(NC(=O)N2CCC(c3nnc[nH]3)CC2)ccc1C", "MtTrpRS": -6.286, "Leishmania in macrophages": -8.712}
{"structure": "CC(=O)N1CCCC1c1cncc(Oc2ccc(F)cc2)n1", "stereo": "configuration not stated", "Leishmania in macrophages": -0.2813}
{"structure": "c1ccc(OCc2nc(CNCCn3cccn3)cs2)cc1", "MtTrpRS": -1.417, "Leishmania in macrophages": 9.865}
{"structure": "CC(NC(=O)NCCc1nc(C(F)(F)F)cs1)C(=O)N(C)C", "stereo": "configuration not stated", "MtTrpRS": -0.7597, "Leishmania in macrophages": 6.78}
{"structure": "CC(C)(C)NC(=O)CNC(=O)CCc1ccccc1Br", "MtTrpRS": -5.308, "Leishmania in macrophages": 16.43}
{"structure": "CC(C)(C)NC(=O)NC(=O)CN1C=Nc2ccccc2S1(=O)=O", "MtTrpRS": 3.712, "Leishmania in macrophages": -29.9}

The last 5 entries again:

For CC(=O)N1CCCC1c1cncc(Oc2ccc(F)cc2)n1 (configuration not stated) the result was Leishmania in macrophages: -0.2813%.
For c1ccc(OCc2nc(CNCCn3cccn3)cs2)cc1 the result was MtTrpRS: -1.417%; Leishmania in macrophages: 9.865%.
For CC(NC(=O)NCCc1nc(C(F)(F)F)cs1)C(=O)N(C)C (configuration not stated) the result was MtTrpRS: -0.7597%; Leishmania in macrophages: 6.78%.
For CC(C)(C)NC(=O)CNC(=O)CCc1ccccc1Br the result was MtTrpRS: -5.308%; Leishmania in macrophages: 16.43%.
For CC(C)(C)NC(=O)NC(=O)CN1C=Nc2ccccc2S1(=O)=O the result was MtTrpRS: 3.712%; Leishmania in macrophages: -29.9%.

Measurements from “University of Dundee, Small-Polar-MMV Screening Library” (2021), ChEMBL document CHEMBL3988442.